Each structure is given as a SMILES string. Counter-ions that a name gives are not always drawn. This is one part of the list. The calls rarely recur for the same compound in another form.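 In K562 cells expressing nanoluciferase-fused kinases, luminescence was recorded at 4 h intervals between 2 and 18 h, normalized as percent of control with DMSO at 100% and a positive control at 0%. A significant (2 sigma) signal drop marks a time point as decreased. The authors' rule for a hit is not shown and takes in more than the number of time points.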

Protein sequences, listed by entry. Tags and fused reporters are not part of them.
UniProt P50750, whole entry: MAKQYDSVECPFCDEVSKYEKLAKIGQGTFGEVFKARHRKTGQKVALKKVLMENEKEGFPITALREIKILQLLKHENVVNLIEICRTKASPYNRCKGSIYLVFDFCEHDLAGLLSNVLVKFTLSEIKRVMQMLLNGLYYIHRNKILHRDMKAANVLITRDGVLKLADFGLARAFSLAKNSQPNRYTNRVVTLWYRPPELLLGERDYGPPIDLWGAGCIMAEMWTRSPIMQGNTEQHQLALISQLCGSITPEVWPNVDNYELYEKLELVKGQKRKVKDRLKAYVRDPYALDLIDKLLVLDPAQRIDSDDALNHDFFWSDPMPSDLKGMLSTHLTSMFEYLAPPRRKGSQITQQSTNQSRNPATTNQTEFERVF

The first assay has as its target CDK9 (UniProt P50750). Put plainly: number of time points (of 4; 2 h point missing) at which kinase-Nluc abundance scored as decreased, DMSO-normalised (count); higher = more persistent destabilization. As to conditions: 2.5 µM; K562; 2-18 h.
For the molecule `Cc1[nH]c(/C=C2\C(=O)Nc3ccc(F)cc32)c(C)c1C(=O)NC[C@H](O)CN1CCOCC1`, the “number of time points” value was 0.

In the case of `Nc1nc(Nc2ccc(S(N)(=O)=O)cc2)nn1C(=O)c1c(F)cccc1F`, the “number of time points” value is 0. Regarding `CC1(C)C(=O)N([C@H]2CCc3c(O)cccc32)c2nc(Nc3cccc(CN4CCCC4)c3)ncc21`, the “number of time points” value turned out to be 2. On to `CCN(CC)CCNC(=O)c1c(C)[nH]c(/C=C2\C(=O)Nc3ccc(F)cc32)c1C` [Sunitinib], for which the “number of time points” value was 0. With `O=C(Nc1cccc(Nc2nccc(Nc3cccc(C(F)(F)F)c3)n2)c1)C1CC1` [Aurora kinase inhibitor-3], the “number of time points” value is 0. On the same count and under the same terms, the same measure for `Cc1cc(C)n2c1C=C1C=CC(CCC(=O)NCCN3CCN(C/C=C/C(=O)N4CCCC(n5nc(-c6ccc(Oc7ccccc7)cc6)c6c(N)ncnc65)C4)CC3)=[N+]1[B-]2(F)F` (centres undefined): 0; for `O=C(c1ccc(/C=C/c2n[nH]c3ccccc23)cc1)N1CCNCC1`: 0.

For the molecule `CN1CCN(c2nc(C3=C(c4c[nH]c5ccccc45)C(=O)NC3=O)c3ccccc3n2)CC1` [Sotrastaurin], the “number of time points” value was 0. Same read-out and setting: the same measure for `COc1ccc(-c2cc3nccn3c(Nc3ncccc3C(N)=O)n2)cc1OC` [BAY 61-3606 (dihydrochloride)]: 0; for `Cc1cnc(Nc2ccc(OCCN3CCCC3)cc2)nc1Nc1cccc(S(=O)(=O)NC(C)(C)C)c1` [Fedratinib (hydrochloride hydrate)]: 0; for `CCOc1cc2ncc(C#N)c(Nc3ccc(F)c(Cl)c3)c2cc1NC(=O)/C=C/CN(C)C` [Pelitinib]: 0. On the same count and under the same terms, as for `Cc1cc(Nc2cc(N3CCN(C)CC3)nc(/C=C/c3ccccc3)n2)n[nH]1`, the figure is 0; as for `CN1CCN(c2ccc3nc(-c4c(N)c5c(F)cccc5[nH]c4=O)[nH]c3c2)CC1` [Dovitinib], 0. Take `CC(=O)c1c(C)c2cnc(Nc3ccc(N4CCN(C(=O)CCCCCC(=O)N[C@H](C(=O)N5C[C@H](O)C[C@H]5C(=O)NCc5ccc(-c6scnc6C)cc5)C(C)(C)C)CC4)cn3)nc2n(C2CCCC2)c1=O`: the “number of time points” value came out at 0. `Cc1cnc(Nc2ccc(OCCN3CCCC3)cc2)nc1Nc1cccc(S(=O)(=O)NC(C)(C)C)c1` [Fedratinib]: the “number of time points” value was 0. Turning to `C=CC(=O)N1CCC[C@@H](n2nc(-c3ccc(Oc4ccccc4)cc3)c3c(N)ncnc32)C1` [Ibrutinib], the “number of time points” value turned out to be 0. For the molecule `CC1(C)CNc2cc(NC(=O)c3cccnc3NCc3ccncc3)ccc21` [Motesanib], the “number of time points” value stood at 0. The same measure, in the same setting: the same measure for `COc1cc(N2CCC(N3CCN(C)CC3)CC2)ccc1Nc1ncc(Cl)c(Nc2ccccc2S(=O)(=O)C(C)C)n1`: 0.

The assay is the same for the next values; noted with them: 10 µM; K562; 2-18 h.
`Cc1ccc2c(=O)c3cccc(CC(=O)O)c3oc2c1C` [Vadimezan]: the “number of time points” value came out at 0. On the same count and under the same terms, as for `COc1ccc(-c2c[nH]c3nccc(-c4ccsc4)c23)c(OC)c1`, the figure is 0. The same measure, in the same setting: as for `N#CC(=Cc1cc(Cl)cc(Cl)c1)c1cccnc1`, the figure is 0; as for `O=S(=O)(c1cccc2c(O)nccc12)N1CCCNCC1` [Hydroxyfasudil (hydrochloride)], 0; as for `CC#CC(=O)N1CCC[C@H]1c1nc(-c2ccc(C(=O)Nc3ccccn3)cc2)c2c(N)nccn12` [Acalabrutinib], 0. In the case of `COc1cc2ncnc(Nc3ccc(F)c(Cl)c3)c2cc1OCCCN1CCOCC1` [Gefitinib], the “number of time points” value was 0. Regarding `Nc1ncnc2n[nH]c(-c3ccc(Oc4ccccc4)cc3)c12` [Ibrutinib deacryloylpiperidine], the “number of time points” value stood at 0. On the same count and under the same terms, as for `CCCCCC1CC1CC1CC1CCCCCCCC(=O)OC` (centres undefined), the figure is 0; as for `C=CC(=O)Nc1cc2c(Nc3ccc(F)c(Cl)c3)ncnc2cc1OCCCN1CCOCC1` [Canertinib], 0; as for `CCCOc1ccc(C=C2SC(=O)NC2=O)cc1`, 0.

In the case of `O=C(NCCCNc1nc(Nc2cccc(CN3CCOCC3)c2)ncc1C1CC1)C1CCC1`, the “number of time points” value was 0. With `O=C1Cc2c([nH]c3ccc(Br)cc23)-c2ccccc2N1` [Kenpaullone], the “number of time points” value amounted to 0. As for `CC(C)(C)n1nc(-c2ccc(Cl)cc2)c2c(N)ncnc21`, the “number of time points” value was 0. `NC1(C(=O)N[C@@H](CCO)c2ccc(Cl)cc2)CCN(c2nc[nH]c3nccc2-3)CC1` [Capivasertib]: the “number of time points” value worked out at 0.

Take `Cc1ccc(-n2nc(C(C)(C)C)cc2NC(=O)Nc2ccc(OCCN3CCOCC3)c3ccccc23)cc1` [Doramapimod]: the “number of time points” value was 0. Regarding `O=c1ncn2nc(Sc3ccc(F)cc3F)ccc2c1-c1c(Cl)cccc1Cl` [Neflamapimod], the “number of time points” value came out at 0. Same read-out and setting: as for `O=C(Nc1cccc(Cl)c1)Nc1ncc(CCNc2ncnc3ccsc23)s1` [SNS-314 (mesylate)], the figure is 0; as for `CCn1c(=O)c(-c2cc(NC(=O)Nc3ccccc3)c(F)cc2Br)cc2cnc(NC)cc21` [Ripretinib], 1; as for `C[C@H]1Oc2cc(cnc2N)-c2c(nn(C)c2C#N)CN(C)C(=O)c2ccc(F)cc21` [Lorlatinib], 0. `O=S(=O)(c1cccc2c(O)nccc12)N1CCCNCC1` [Hydroxyfasudil]: the “number of time points” value stood at 0. Still for that read-out and setting: the same measure for `COc1ccc(-c2cc(C(=O)NN=C(C)c3ccc(OC)c(OC)c3)[nH]n2)cc1`: 0.

The values above are taken from the supplement of paper PMC12823440, “Inhibitors supercharge kinase turnover through native proteolytic circuits” (Nature, 2025).
